Results on 16 targets are retold here after the supplement of paper PMC12067093, “Discovery and optimisation of a covalent ligand for TRIM25 and its application to targeted protein ubiquitination” (Chemical Science, 2025).

Chains of the proteins cited; added tags and fusions are not shown. Lines headed by an entry give the natural chain unless they say otherwise; changes in a name come on top.
UniProt P28702: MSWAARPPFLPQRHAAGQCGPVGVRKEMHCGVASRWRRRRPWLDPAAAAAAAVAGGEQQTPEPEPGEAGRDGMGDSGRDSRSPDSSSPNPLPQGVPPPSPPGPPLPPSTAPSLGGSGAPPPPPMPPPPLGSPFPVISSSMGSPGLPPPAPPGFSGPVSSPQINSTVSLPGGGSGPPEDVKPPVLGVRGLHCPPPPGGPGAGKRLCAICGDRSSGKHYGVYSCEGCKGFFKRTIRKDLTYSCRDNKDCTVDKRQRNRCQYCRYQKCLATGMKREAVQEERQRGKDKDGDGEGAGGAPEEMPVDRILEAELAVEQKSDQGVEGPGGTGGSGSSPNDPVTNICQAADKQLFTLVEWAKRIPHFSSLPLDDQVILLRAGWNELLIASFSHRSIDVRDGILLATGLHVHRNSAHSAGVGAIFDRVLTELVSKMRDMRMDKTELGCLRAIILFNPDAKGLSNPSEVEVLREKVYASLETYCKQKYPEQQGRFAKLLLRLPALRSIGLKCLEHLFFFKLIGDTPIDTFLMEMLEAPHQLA
UniProt A6NKF1: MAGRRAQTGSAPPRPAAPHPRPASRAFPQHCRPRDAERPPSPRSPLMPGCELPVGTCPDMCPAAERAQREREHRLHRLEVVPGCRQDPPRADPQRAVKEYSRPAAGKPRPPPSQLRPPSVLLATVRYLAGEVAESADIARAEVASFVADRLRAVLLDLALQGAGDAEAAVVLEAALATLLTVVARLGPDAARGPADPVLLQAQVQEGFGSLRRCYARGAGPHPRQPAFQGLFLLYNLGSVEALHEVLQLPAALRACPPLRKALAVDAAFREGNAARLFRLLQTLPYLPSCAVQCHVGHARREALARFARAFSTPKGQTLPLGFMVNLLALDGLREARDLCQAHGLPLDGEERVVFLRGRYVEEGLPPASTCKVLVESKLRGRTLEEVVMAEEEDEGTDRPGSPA
UniProt P78345: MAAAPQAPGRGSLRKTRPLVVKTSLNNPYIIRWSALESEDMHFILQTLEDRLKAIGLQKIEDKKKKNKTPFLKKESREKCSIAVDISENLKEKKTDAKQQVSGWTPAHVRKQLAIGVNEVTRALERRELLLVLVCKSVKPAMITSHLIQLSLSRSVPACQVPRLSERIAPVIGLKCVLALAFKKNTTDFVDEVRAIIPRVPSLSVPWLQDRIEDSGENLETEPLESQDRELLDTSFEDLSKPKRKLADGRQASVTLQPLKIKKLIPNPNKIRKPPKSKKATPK
UniProt Q96DX4: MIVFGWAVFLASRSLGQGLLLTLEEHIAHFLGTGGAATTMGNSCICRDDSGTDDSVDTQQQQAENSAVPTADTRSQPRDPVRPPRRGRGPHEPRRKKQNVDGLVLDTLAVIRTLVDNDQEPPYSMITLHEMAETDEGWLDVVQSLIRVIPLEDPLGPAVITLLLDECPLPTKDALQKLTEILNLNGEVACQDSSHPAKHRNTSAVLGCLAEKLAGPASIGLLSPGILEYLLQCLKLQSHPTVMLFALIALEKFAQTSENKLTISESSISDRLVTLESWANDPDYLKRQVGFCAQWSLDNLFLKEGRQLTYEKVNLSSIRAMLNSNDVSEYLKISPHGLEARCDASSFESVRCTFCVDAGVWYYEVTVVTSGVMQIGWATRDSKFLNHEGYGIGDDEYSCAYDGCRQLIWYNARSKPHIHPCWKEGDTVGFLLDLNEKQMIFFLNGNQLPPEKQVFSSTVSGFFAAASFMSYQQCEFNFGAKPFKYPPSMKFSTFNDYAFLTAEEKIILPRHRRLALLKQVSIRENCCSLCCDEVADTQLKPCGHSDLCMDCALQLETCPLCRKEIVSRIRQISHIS
UniProt Q5JTH9: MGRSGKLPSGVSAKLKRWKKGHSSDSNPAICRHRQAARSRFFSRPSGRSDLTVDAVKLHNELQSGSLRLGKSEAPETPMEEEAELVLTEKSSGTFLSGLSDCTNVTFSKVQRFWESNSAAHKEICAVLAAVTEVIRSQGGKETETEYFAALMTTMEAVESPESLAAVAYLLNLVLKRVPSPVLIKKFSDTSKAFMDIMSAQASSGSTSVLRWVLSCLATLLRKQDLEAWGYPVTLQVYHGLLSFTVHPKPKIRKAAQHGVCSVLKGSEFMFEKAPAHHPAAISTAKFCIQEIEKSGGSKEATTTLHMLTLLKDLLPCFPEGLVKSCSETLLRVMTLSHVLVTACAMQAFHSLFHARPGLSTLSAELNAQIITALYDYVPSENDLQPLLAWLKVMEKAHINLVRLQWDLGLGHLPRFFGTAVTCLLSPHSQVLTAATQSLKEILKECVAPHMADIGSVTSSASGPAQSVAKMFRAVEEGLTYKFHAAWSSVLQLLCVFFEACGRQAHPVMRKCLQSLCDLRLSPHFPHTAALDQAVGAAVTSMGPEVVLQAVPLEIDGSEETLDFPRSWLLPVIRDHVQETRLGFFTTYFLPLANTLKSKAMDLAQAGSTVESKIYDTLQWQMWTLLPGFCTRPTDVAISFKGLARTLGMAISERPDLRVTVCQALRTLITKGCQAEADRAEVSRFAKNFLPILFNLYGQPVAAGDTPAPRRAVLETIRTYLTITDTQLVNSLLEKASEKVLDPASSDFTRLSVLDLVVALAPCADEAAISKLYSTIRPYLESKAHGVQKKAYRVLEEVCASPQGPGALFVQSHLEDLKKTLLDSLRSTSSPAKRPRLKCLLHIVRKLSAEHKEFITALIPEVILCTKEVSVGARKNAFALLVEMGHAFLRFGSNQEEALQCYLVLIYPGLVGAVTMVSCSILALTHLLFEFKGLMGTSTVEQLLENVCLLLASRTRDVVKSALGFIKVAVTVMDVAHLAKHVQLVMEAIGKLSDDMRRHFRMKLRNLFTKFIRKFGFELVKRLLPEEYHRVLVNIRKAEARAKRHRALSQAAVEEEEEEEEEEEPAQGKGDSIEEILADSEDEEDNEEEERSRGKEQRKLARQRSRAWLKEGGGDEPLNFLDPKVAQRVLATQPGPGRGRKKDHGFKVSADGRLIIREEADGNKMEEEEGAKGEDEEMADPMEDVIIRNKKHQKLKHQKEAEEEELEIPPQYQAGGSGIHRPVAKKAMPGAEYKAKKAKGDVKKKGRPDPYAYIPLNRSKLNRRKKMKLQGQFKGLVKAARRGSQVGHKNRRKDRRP
UniProt Q9NQC3: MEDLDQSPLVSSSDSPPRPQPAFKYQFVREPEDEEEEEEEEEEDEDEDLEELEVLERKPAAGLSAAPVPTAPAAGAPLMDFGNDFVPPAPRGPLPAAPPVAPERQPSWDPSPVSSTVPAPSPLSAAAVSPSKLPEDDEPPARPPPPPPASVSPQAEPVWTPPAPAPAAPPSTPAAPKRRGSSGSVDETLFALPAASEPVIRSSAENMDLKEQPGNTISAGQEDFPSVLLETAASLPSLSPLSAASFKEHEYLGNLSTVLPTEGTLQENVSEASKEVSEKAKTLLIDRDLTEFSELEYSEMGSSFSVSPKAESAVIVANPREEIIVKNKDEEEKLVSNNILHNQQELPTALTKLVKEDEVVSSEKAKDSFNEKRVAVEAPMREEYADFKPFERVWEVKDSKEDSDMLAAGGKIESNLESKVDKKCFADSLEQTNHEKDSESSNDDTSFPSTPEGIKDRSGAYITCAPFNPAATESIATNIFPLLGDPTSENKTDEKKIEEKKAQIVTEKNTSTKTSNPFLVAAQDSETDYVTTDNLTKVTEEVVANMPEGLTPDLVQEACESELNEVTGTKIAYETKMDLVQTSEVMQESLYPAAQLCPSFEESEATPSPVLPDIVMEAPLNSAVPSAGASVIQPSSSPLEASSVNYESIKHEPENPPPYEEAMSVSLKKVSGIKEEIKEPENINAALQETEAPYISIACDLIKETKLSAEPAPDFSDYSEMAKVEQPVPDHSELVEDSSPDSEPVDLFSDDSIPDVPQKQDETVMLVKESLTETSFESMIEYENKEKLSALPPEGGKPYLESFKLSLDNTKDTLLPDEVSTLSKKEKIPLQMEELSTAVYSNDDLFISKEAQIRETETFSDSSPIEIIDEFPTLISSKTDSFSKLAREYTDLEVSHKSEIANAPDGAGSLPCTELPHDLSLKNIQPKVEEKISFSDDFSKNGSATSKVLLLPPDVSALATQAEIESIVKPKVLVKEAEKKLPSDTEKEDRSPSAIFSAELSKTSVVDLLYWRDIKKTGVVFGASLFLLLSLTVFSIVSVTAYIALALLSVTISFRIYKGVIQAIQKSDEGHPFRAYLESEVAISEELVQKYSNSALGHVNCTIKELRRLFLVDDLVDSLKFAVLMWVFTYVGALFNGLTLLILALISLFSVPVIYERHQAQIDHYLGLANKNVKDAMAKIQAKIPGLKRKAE
UniProt O00442: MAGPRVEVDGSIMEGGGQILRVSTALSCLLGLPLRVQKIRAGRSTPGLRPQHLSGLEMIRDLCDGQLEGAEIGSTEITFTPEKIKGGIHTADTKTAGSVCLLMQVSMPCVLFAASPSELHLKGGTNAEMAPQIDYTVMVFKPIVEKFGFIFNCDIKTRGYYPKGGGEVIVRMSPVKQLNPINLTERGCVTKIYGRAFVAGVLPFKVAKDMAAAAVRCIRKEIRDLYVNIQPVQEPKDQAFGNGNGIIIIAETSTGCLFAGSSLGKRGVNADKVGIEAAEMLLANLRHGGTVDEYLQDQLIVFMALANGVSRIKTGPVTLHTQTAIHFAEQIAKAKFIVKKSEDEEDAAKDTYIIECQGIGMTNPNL
UniProt Q9BVN2: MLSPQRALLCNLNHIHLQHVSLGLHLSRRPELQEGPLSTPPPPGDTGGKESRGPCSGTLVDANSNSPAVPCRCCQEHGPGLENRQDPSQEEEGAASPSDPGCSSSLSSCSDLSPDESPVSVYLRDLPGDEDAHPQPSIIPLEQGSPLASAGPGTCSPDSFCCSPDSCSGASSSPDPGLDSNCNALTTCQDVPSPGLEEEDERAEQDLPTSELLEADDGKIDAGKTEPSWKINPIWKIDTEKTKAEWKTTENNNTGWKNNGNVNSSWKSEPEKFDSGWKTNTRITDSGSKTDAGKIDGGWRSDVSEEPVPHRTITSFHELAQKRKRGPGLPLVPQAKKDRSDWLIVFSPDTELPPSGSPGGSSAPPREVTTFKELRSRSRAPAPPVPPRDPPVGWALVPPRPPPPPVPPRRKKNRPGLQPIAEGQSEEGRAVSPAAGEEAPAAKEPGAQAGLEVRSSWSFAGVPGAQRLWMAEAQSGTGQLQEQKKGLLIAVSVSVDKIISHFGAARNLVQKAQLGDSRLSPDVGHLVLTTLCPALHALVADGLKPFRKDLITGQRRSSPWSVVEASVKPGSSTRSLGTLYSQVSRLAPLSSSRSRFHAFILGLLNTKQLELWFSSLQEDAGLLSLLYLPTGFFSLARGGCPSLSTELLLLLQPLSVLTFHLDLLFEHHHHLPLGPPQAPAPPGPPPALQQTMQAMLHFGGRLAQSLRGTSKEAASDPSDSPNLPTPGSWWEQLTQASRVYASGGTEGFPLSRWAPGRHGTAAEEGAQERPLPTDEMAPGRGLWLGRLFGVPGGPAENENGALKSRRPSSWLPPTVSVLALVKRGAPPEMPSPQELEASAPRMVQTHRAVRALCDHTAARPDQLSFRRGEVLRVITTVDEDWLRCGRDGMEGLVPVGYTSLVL
UniProt Q9NTJ5: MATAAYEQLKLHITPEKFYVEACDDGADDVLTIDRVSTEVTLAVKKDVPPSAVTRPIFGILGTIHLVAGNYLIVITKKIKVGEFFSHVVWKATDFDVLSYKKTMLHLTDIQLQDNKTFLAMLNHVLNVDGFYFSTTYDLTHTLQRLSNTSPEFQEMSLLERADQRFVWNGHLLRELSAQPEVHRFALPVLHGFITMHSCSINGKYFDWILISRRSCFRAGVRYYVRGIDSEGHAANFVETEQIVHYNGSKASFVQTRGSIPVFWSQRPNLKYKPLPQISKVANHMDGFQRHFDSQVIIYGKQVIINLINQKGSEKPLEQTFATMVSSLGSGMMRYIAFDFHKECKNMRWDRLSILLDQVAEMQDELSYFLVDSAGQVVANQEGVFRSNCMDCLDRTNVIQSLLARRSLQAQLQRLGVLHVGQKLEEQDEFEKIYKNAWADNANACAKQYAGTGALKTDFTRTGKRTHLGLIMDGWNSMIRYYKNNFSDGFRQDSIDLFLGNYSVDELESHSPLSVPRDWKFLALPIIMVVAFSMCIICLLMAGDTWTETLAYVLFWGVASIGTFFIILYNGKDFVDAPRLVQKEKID

This is one part of the list.

Compound in this assay: CC1Cc2ccccc2N1C(=O)C1CCCN(C1)C(=O)CCl (mixture of isomers) [TRIM25 ligand 11 (diastereomer mixture)]
In words: probe-labelled cysteine peptide fold change vs DMSO (competition) (log2 fold change); higher = less target engagement (more negative = stronger competition). Conditions: THP-1, incubation time: 4 h.
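Note: competitive chemoproteomic profiling in live THP-1 cells with an iodoacetamide desthiobiotin (IA-DTB) probe, comparing probe-labelled peptide intensities in compound-treated cells against DMSO-treated controls.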

On to “RPS6_P62753_83_GHSCYRPR (UniProt P62753)”, for which the “probe-labelled cysteine peptide fold change” value reads like this: (10 µM) -0.0363; (50 µM) 0.0302.
Taken in the same sequence, the figures for “RXRB_P28702_247_DCTVDKR (UniProt P28702)” were -0.122 and -0.1.
Taken in the same sequence, the figures for “SAC3D1_A6NKF1_340_DLCQAHGLPLDGEER (UniProt A6NKF1)” were 0.0214 and 0.148.
Regarding “RPP38_P78345_80_CSIAVDISENLK (UniProt P78345)”, the “probe-labelled cysteine peptide fold change” value (10 µM) was -0.0368 and the “probe-labelled cysteine peptide fold change” value (50 µM) is -0.142.
As to “RXRA_P19793_171_DLTYTCR (UniProt P19793)”, the “probe-labelled cysteine peptide fold change” value was 0.103 (10 µM) and 0.177 (50 µM).
Taken in the same sequence, the figures for “RSPRY1_Q96DX4_399_FLNHEGYGIGDDEYSCAYDGCR (UniProt Q96DX4)” were -0.0549 and -0.231.
In the case of “RRP12_Q5JTH9_673_GCQAEADR (UniProt Q5JTH9)”, the “probe-labelled cysteine peptide fold change” value by setting is: (10 µM) -0.0205; (50 µM) -0.141.
Take “RTN4_Q9NQC3_1101_YSNSALGHVNCTIK (UniProt Q9NQC3)”: the “probe-labelled cysteine peptide fold change” value runs as follows: (10 µM) 0.00619; (50 µM) -0.215.
For the target “RTCA_O00442_28_VSTALSCLLGLPLR (UniProt O00442)”, the “probe-labelled cysteine peptide fold change” value (10 µM) was -0.0917 and the “probe-labelled cysteine peptide fold change” value (50 µM) was -0.0865.
As for “RPS4X_P62701_41_LRECLPLIIFLR (UniProt P62701)”, the “probe-labelled cysteine peptide fold change” value is -0.09 (10 µM) and 0.034 (50 µM).
Regarding “RPS27A_P62979_126_RECPSDECGAGVFMASHFDR (UniProt P62979)”, the “probe-labelled cysteine peptide fold change” value reads like this: (10 µM) -0.117; (50 µM) -0.3.
For “RUSC1_Q9BVN2_532_LSPDVGHLVLTTLCPALHALVADGLK (UniProt Q9BVN2)”, the “probe-labelled cysteine peptide fold change” value by setting is: (10 µM) -0.131; (50 µM) -0.173.
In the case of “SACM1L_Q9NTJ5_199_FALPVLHGFITMHSCSINGK (UniProt Q9NTJ5)”, the “probe-labelled cysteine peptide fold change” value was -0.0118 (10 µM) and 0.173 (50 µM).
On to “RPS11_P62280_60_CPFTGNVSIR (UniProt P62280)”, for which the “probe-labelled cysteine peptide fold change” value is, setting by setting: (10 µM) -0.0697; (50 µM) -0.146.
For “RPS12_P25398_50+56_RQAHLCVLASNCDEPMYVK (UniProt P25398)”, in that order: -0.431 and -0.172.
As to “SACS_Q9NZJ4_1285_FCPLAQAVIKPIHDLDLQPYLHNVPK (UniProt Q9NZJ4)”, the “probe-labelled cysteine peptide fold change” value (10 µM) is -0.14 and the “probe-labelled cysteine peptide fold change” value (50 µM) is -0.0635.
